Experimental data: PubChem BioAssay AID504774 (Drosophila RNAi Screening Center, 2011)
In all, the deposit lists about 23,000 reagents; shown is a random part of those that have a named target and a result. 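Values are quantile-normalised luminescence on an arbitrary scale; higher means more cells surviving MMS.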 Reagents against one gene are numbered here. A plus sign joins genes that one reagent is predicted to hit.

- Assay: 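Knock-downs that shift viability of MMS-exposed cells relative to untreated ones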 (primary screen)
- Cell system: Drosophila Kc167 cells
- Knock-down reagent: long dsRNA against Drosophila genes, about 0.25 µg dsRNA per well
- Time to read-out: about 6 days: 3 days knock-down, then 3 days with or without MMS
- Challenge: methyl methanesulphonate 0.004% (w/v) for 3 days after knock-down
- Detection: 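Viability in wells given MMS, read as ATP luminescence, normalised by quantiles plate by plate and averaged across replicates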
- Reading the numbers: mean viability with MMS and viability with MMS: higher = more surviving cells after MMS

Gene,reagent no.,mean viability with MMS,"viability with MMS, replicate 1","viability with MMS, replicate 2"
CG14221,1,3.54e6,4.03e6,4.00e6
CG31224,1,1.75e6,3.97e6,3.86e6
CG31224,2,3.34e6,3.79e6,3.81e6
CG15597,1,3.53e6,3.95e6,4.11e6
CG9150,1,3.56e6,4.18e6,3.87e6
CG14282,1,3.49e6,4.02e6,3.91e6
Nil,1,3.29e6,3.71e6,3.70e6
Nil,2,3.65e6,4.15e6,4.14e6
l(2)10685,1,3.69e6,4.10e6,4.31e6
slif,1,3.65e6,3.99e6,4.26e6
Ir84a,1,3.39e6,3.87e6,3.82e6
Idgf5,1,3.49e6,3.93e6,3.96e6
CG7970,1,3.58e6,4.08e6,4.04e6
CG5973,1,3.82e6,4.43e6,4.26e6
dsd,1,3.59e6,4.16e6,3.97e6
dsd,2,3.63e6,4.09e6,4.11e6
Den1,1,3.63e6,4.18e6,4.20e6
CG42755 (retired record),1,3.68e6,4.21e6,4.06e6
CG42755 (retired record),2,3.67e6,4.19e6,4.06e6
bsd,1,3.57e6,3.79e6,4.20e6
Ttd14,1,3.36e6,3.77e6,3.87e6
Ttd14,2,3.33e6,3.71e6,3.79e6
Idgf1,1,3.64e6,3.97e6,4.32e6

The list goes on; the last 4 above are carried over.
Gene,reagent no.,mean viability with MMS,"viability with MMS, replicate 1","viability with MMS, replicate 2"
bsd,1,3.57e6,3.79e6,4.20e6
Ttd14,1,3.36e6,3.77e6,3.87e6
Ttd14,2,3.33e6,3.71e6,3.79e6
Idgf1,1,3.64e6,3.97e6,4.32e6
CG7668,1,3.66e6,4.20e6,4.06e6
CG15649,1,3.54e6,3.98e6,4.03e6
CCT4,1,3.34e6,3.80e6,3.74e6
mlt,1,3.67e6,4.13e6,4.20e6
slp1,1,3.81e6,4.23e6,4.43e6
CG11786,1,3.73e6,4.14e6,4.31e6
upd3,1,3.57e6,3.98e6,4.11e6
upd3,2,3.61e6,4.02e6,4.15e6
upd3,3,3.37e6,3.93e6,3.83e6
CG13295,1,3.54e6,4.00e6,4.04e6
boss,1,3.57e6,4.03e6,4.07e6
U4-U6-60K,1,3.47e6,3.95e6,3.90e6
CG31915,1,3.51e6,4.04e6,3.93e6
EMC1,1,3.30e6,3.79e6,3.70e6
noi,1,3.07e6,3.62e6,3.62e6
CG31955,1,3.55e6,3.96e6,4.08e6
Gr64a,1,3.24e6,3.76e6,3.80e6
CG34425,1,3.77e6,3.95e6,4.47e6
CG34425,2,3.38e6,3.87e6,3.90e6
GatB,1,3.69e6,4.22e6,4.14e6
CG6398,1,3.70e6,4.23e6,4.21e6
CG32821 (retired record),1,3.63e6,4.05e6,4.13e6
fd3F + CG42499 (retired record),1,3.77e6,4.42e6,4.15e6
fd3F + CG42499 (retired record),2,3.64e6,3.97e6,4.27e6
